Assay results reported in article PMC10919088.
Results are given in words; binding and its absence hold for the method and conditions named. Some binding calls cover weakened binding; strength is not graded here.

Target: heat-labile enterotoxin B-subunit (LTB) of porcine ETEC (pLT), produced in Vmax (Escherichia coli (ETEC, porcine origin)) (UniProt P32890)
Assay: SEC

Substance	binding
heat-labile enterotoxin B-subunit (LTB) of porcine ETEC (pLT), produced in Vmax (from UniProt P32890 22-124)	binds
heat-labile enterotoxin catalytic A-subunit (LTA) of porcine ETEC (pLT), produced in Vmax (from UniProt P06717 19-258)	binds
